# Laboratory results as given in US5126327A, “Melanocyte-stimulating hormone inhibitor and external preparation containing the same” (Lion Corporation, priority 1989, dated 1992).
# Not every detail of the peptide structures is certain; ends, links or a residue may be inferred. Residues, ends and D or L forms follow the SMILES beside them.
# Key:
# [1] = system: pigmented spots (chloasmata or freckles); test: External preparation applied to pigmented spots of patients; format: in vivo, human; settings: cream containing 0.001 wt. % of compound, applied twice a day for two months, eight male and female patients
# Excerpt: The cream thus prepared was applied to pigmented spots (chloasmata or freckles) of eight male and female patients twice a day (in the morning and evening) for two months.
# [2] = system: hair follicle melanocytes; test: MSH-inhibiting effect: eumelanin production in cultured skin grafts, specimen pre-mixed with α-MSH (Example 10); format: cell-based, yellow mice (C 57 BL/6J-A'); design: key: ±: weak; +: strong; settings: α-MSH and specimen mixed first, then skin grafts added; Ham's F-12, 37° C., 2 days
# Experimental: Skin grafts (about 1 mm×1 mm) of yellow mice (C 57 BL/6J-A') (7.5 days after the birth) containing hair follicle melanocytes were cultured in Ham's F-12 culture medium at 37° C. for 2 days. The culture media used were: (i) Ham's F-12 medium containing α-MSH, (ii) that containing both α-MSH and the compound of the present invention, i.e., α-MSH and the compound of the present invention were mixed so as to interact each other and then the skin grafts were added thereto, and (iii) that containing no additive. After completion of the culture followed by fixation with 10% formalin, specimens were prepared by an ordinary method.
SMILES,Fading/relief of pigmented spots versus comparative cream [1],"Eumelanin production, 10^-9 M of α-MSH and 10^-8 M of specimen added [2]"
"CC[C@H](C)[C@H](N)C(=O)N[C@@H](CC(C)C)C(=O)N[C@@H](CC(C)C)C(=O)N[C@@H](C)C(=O)N[C@@H](CS)C(=O)N[C@@H](C)C(=O)N[C@@H](CCCNC(=N)N)C(=O)N[C@H](C(=O)N[C@@H](CO)C(=O)N1CCC[C@H]1C(=O)NCC(=O)N[C@@H](CCCNC(=N)N)C(=O)N[C@@H](CCCNC(=N)N)C(=O)O)[C@@H](C)CC [Compound No. 113, Ile--Leu--Leu--Ala--Cys--Ala--Arg--Ile--Ser--Pro--Gly--Arg--Arg] (H-ILLACARISPGRR-OH)",far more faded,±
"CC[C@H](C)[C@H](NC(=O)[C@H](CC(C)C)NC(=O)[C@H](CC(C)C)NC(=O)[C@H](CC(C)C)NC(=O)[C@H](CCC(N)=O)NC(=O)[C@H](CC(C)C)NC(=O)[C@H](C)NC(=O)[C@H](Cc1c[nH]cn1)NC(=O)[C@@H](N)CC(C)C)C(=O)N[C@@H](CC(C)C)C(=O)N[C@@H](CC(C)C)C(=O)N[C@@H](C)C(=O)N[C@@H](CS)C(=O)N[C@@H](C)C(=O)N[C@@H](CCCNC(=N)N)C(=O)N[C@H](C(=O)N[C@@H](CO)C(=O)N1CCC[C@H]1C(=O)NCC(=O)N[C@@H](CCCNC(=N)N)C(=O)N[C@@H](CCCNC(=N)N)C(=O)O)[C@@H](C)CC [Compound No. 132, Leu--His--Ala--Leu--Gln--Leu--Leu--Leu--Ile--Leu--Leu--Ala--Cys--Ala--Arg--Ile--Ser--Pro--Gly--Arg--Arg] (H-LHALQLLLILLACARISPGRR-OH)",far more faded,±
